These results are taken from patent publication US10517965B2, “Bioorthogonal turn-on probes” (The General Hospital Corporation, priority 2013, dated 2019).

The nature of the data set: Fluorogenic characterization of HELIOS probes on reaction with TCOc. The conditions noted are these: unreacted probe in PBS. In kind it is physicochemical. Here is the method: As described above, the fluorescence purity of all HELIOS compounds was verified by LCMS prior to quantitative activation experiments, for which a fresh aliquot of the fluorophore collected from the analytical HPLC elution was used. Exceptionally pure material is required to obtain the peak measured turn-on ratios, as the presence of trace bright contaminants limits the maximum observable ratio.
Stock solutions of the freshly-purified tetrazine dyes were prepared in MeCN and stored in the dark at 4° C. during experiments. For fluorescence measurements, the probes diluted into 2 mL or 3 mL of phosphate buffered saline (PBS), pH 7.4 (Corning, cellgro) in a standard 10 mm quartz cuvette. […] Fluorescence experiments were conducted at a range of dye concentrations spanning 100 nM-750 nM, with 500 nM being a typical working concentration. […] After addition of TCOc (typically a 20-fold excess, as above), the fluorescence emission intensity was monitored until a plateau was reached. Activation ratios were calculated from the peak emission intensity of the dihydropyridazine product and the corresponding baseline intensity over background. Data were normalized to set the initial background fluorescence of the HELIOS probe to one unit over background, as plotted in FIG. 9 in the main text.

Turning to `Cc1nnc(-c2cccc(-c3c(C)c4cc5c6c(c4oc3=O)CCCN6CCC5)c2)nn1` [HELIOS 400Me], the “Fluorescence in native state” value is on record as “negligibly fluorescent”.

On to `Cc1nnc(-c2ccc(-c3c(C)c4cc5c6c(c4oc3=O)CCCN6CCC5)cc2)nn1` [HELIOS 400pMe], for which the “Fluorescence in native state” value is listed as “negligibly fluorescent”.
